The values are deposited in ChEMBL (CHEMBL3988442, “University of Dundee, Small-Polar-MMV Screening Library” (2021)).

By UniProt entry, the sequences of proteins in these tests, tags left out.
UniProt E9BF75, entry or part of it: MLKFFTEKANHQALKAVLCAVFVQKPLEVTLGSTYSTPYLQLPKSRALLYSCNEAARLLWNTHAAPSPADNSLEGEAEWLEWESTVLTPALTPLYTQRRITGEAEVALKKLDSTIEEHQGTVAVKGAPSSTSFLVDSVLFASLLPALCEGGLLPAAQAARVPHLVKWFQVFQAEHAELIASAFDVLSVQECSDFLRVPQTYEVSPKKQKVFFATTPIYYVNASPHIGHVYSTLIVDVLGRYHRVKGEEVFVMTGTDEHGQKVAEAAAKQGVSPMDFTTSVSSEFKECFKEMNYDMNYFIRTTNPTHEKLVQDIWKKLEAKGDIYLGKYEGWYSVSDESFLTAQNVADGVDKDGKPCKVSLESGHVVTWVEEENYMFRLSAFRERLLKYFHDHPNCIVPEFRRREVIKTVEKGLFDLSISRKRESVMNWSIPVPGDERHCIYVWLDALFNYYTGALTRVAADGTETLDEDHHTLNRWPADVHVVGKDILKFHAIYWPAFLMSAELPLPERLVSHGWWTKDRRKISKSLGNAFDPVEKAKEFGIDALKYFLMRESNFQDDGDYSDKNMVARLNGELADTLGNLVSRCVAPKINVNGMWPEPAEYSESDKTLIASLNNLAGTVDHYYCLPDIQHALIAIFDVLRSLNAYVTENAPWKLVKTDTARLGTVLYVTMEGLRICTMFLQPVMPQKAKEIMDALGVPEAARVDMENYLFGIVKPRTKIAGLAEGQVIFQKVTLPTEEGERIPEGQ

LdMetRS: 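Methionyl-tRNA synthetase (putative), Leishmania donovani (UniProt E9BF75). Primary screen of methionyl-tRNA synthetase; the read-out is not stated. The test concentration is not given. The values are filed as inhibition. Of about 68,000 compounds tested this way, about 24 (0.035%) reached 50% or more in at least one test.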
Mtb heat-shock: 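Assay on Mycobacterium tuberculosis, filed only as a heat shock assay from Cornell; the read-out is not stated. The concentration is filed as 10 mM, unlikely as a test dose, so the dose is not known. Direction is inferred from retests: higher values go with stronger inhibition. Size under these conditions: about 69,000 compounds, about 930 of them at 50% or above in at least one test.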

Results are percentages, as filed. How 0% and 100% were set is not recorded. Most values in the screen are low, and negative values occur. This is an unselected part of the compounds tested. A dash means the value is not listed here; it may have been measured.

Compound	LdMetRS	Mtb heat-shock
C[C@]1(O)CN(CCO)CC[C@@H]1Oc1cccc(F)c1	9.647%	-8.503%
CN(C)C(=O)c1cccc(NC(=O)Cc2cc(F)ccc2F)n1	3.621%	-7.346%
CCCc1nnsc1C(=O)N1CCN(CC(O)C2CC2)CC1 (stereo not given)	-2.878%	-
O=C(NCC[S+]([O-])c1ccccc1)NCC(F)(F)F (stereo not given)	19.22%	3.133%
CC(Nc1nc2c(cnn2C)c(=O)[nH]1)c1ccccn1 (stereo not given)	4.935%	-10.47%
COc1cc(NC2CCCNC2)cc(OC)c1 (stereo not given)	-1.989%	14.55%
c1csc(CN2CCCn3cnc(COCC4CC4)c3C2)n1	13.36%	-
COCCN(Cc1ccccc1Cl)C(=O)c1c(C)cc(C)[nH]c1=O	7.258%	14.25%
CC(Oc1ccc2c(c1)OCO2)C(=O)Nc1ccon1 (stereo not given)	-10.17%	3.539%
[H][C@]12CC[C@]([H])(CN(C(=O)C3CCC3)C1)N(C(=O)c1ccccc1SC)C2	-	6.914%
CS(=O)(=O)N[C@@H]1CN(Cc2ccc3ncccc3c2)C[C@H]1O	14.78%	-7.733%
O=C(O)C(F)(F)F.[H][C@]12CC[C@@]3(N=C(CC)NC3=O)[C@@]1([H])CN(Cc1ccccc1F)C2	-	-11.86%
CNS(=O)(=O)CCn1cc(-c2cc3c(cc2OC)CCC3)nn1	9.804%	13.29%
CCCNC(=O)CN(C)C1CCN(c2ccc(Cl)cc2)CC1	10.65%	0.1735%
[H][C@@]12CCN(Cc3ccncc3)C[C@@]1([H])O[C@@H](C(=O)N(C)C)C2	-	-22.99%
CCN1CCN(C(=O)NC(C)c2noc(-c3ccccc3)n2)CC1 (stereo not given)	20.39%	-20.23%
CN(Cc1cccc(F)c1)C(=O)c1cc2c([nH]c1=O)CCCC2=O	14.92%	3.143%
CN(C)c1ccc(CC(=O)N2CCOCC(O)C2)cc1 (stereo not given)	7.205%	-5.222%
c1ccc(COC[C@H]2CCC[C@@]23CNCCO3)nc1	0%	-
O=C(C1CC=CC1)N1C[C@@H]2[C@@H](C1)OCC(=O)N2Cc1cccnc1	10.78%	-
Cc1nc(CN2CC[C@@H]3[C@@H](CCC(=O)N3CCc3c[nH]cn3)C2)co1	7.801%	-
CNC(=O)CN1CCOCC2(C1)CN(C(=O)CC(C)C)CCO2 (stereo not given)	15.27%	-
Cc1ccc(N2CC3(COCCN(Cc4nccs4)C3)OCC2=O)s1 (stereo not given)	7.843%	-
CC(=O)N[C@@H]1CN(Cc2cccs2)C[C@H]1c1ccc(C)o1	7.581%	0.5589%
c1ccc(CSc2nnc(C3CC3)s2)nc1	15.75%	12.51%
O=C(CCNC(=O)C1=Cc2ccccc2OC1)NCc1ccncc1	12.63%	-41.47%
CC(C)CC1SCC(=O)Nc2c1cnn2C(C)C (stereo not given)	12.03%	-8.701%
CCc1c(C)sc2nc3n(CCN4CCCCC4)nc(SC)n3c(=O)c12	15.86%	-29.46%
[H][C@@]12CCN(C(=O)c3ccnnc3)C[C@@]1([H])O[C@H](c1nc(C)c(C)s1)C2	-	2.971%
CC(C)NC(=O)NCCCc1cccc(F)c1	15.73%	3.048%
COCCS(=O)(=O)c1ncc(CN(C)C)n1Cc1ccccc1	12.5%	-35.51%
COc1ccccc1-c1c[nH]c(C2CCCN2)n1.Cl.Cl (stereo not given)	-	-6.774%
Cc1nc(C2CCCN(C(=O)c3csc(C)n3)C2)no1 (stereo not given)	-9.239%	-3.041%
CC(C)[C@H]1CN(c2ccncc2)C[C@@H]1NS(=O)(=O)N(C)C	12.77%	2.139%
O=C(NC1(c2cccc(F)c2)CCOCC1)c1ccccn1	7.087%	-14.99%
O=C(O)C(F)(F)F.[H][C@@]12CCN(c3cnccn3)C[C@]1([H])CN(C(=O)CC1CC1)C2	-	-16.38%
Cc1nc2n(n1)CC(Nc1ncnc3c1CCC3)CC2 (stereo not given)	13.9%	4.409%
Cn1nc(C(=O)N2CC(Oc3nc4c(Cl)cccc4s3)C2)ccc1=O	15.11%	6.638%
CN(C)CCN1CCO[C@H]2CN(C(=O)c3ccsc3)C[C@H]21	9.836%	-
[H][C@]12CCN(c3ccc(Cl)cn3)C[C@]1(COC)CC[C@@H](N1CCOCC1)C2	-	14.45%
O=C(c1ccnnc1)N1CCN2C[C@H](Oc3cccc(F)c3)C[C@H]2C1	12.13%	-
O=C(NC1CC1)N1C[C@@H]2CCN(C(=O)c3cscn3)[C@@H]2C1	0.5464%	-
CC[C@@H](c1ccccc1)n1c(C2CC2)n[nH]c1=O	12.9%	-4.877%
COc1cccc(C(=O)Nc2ccc(OCCC(N)=O)cc2)c1OC	5.292%	-17.27%
CC(=O)N1CCO[C@@H]2CN(C(=O)c3ccc4ncccc4c3)CC[C@@H]2C1	18.25%	-
CC(C)N1CCOCC2(CN(Cc3nccs3)CCO2)C1.O=C(O)C(F)(F)F.O=C(O)C(F)(F)F (stereo not given)	-	-8.042%
CCn1nc(C)c(CCNC(=O)C2CCCN(CC(N)=O)C2)c1C (stereo not given)	9.63%	-10.72%
Cc1ccc(C(O)CN(C)Cc2cnn(C)c2)cc1C (stereo not given)	5.042%	11.55%
CCOc1ccccc1Nc1nc2c(C)nn(C)c2c(=O)n1C	8.661%	7.073%
CCCS(=O)(=O)N1CCC(NC(=O)c2ccc(C)s2)CC1	9.019%	11.63%
Cc1nc(N2CCCC2)ccc1NCc1ccccn1	21.56%	4.716%
Cc1ccc(C)c2c1NC(=O)C2CC(=O)O (stereo not given)	4.194%	-4.894%
Cc1cnn(CC2CN(Cc3nc(-c4cccnc4)no3)CCO2)c1 (stereo not given)	16.87%	-7.896%
Cc1cnn(-c2cccc(N3CCCCC3)n2)c1	3.495%	-14.42%
COCCN1CCN(C(=O)N2CCCC2)Cc2ccc(C)nc21.O=C(O)C(F)(F)F	-	-1.897%
Cc1noc(C)c1-c1cncc(C2CCCN2Cc2c[nH]cn2)n1 (stereo not given)	20.06%	-8.595%
Oc1cc(C2CCNCC2)nc(-c2ccsc2)n1	21.52%	-
CCN(C)C[C@@H]1CN(Cc2cnc3c(S(C)(=O)=O)cnn3c2)C[C@@H]1CO	9.97%	-210%
COc1ccc(C)cc1C(C)NC(=O)CCn1cncn1 (stereo not given)	10.24%	-4.478%

Some entries from above, unchanged:

| Compound | LdMetRS | Mtb heat-shock |
|---|---|---|
| `CCc1c(C)sc2nc3n(CCN4CCCCC4)nc(SC)n3c(=O)c12` | 15.86% | -29.46% |
| `CCN(C)C[C@@H]1CN(Cc2cnc3c(S(C)(=O)=O)cnn3c2)C[C@@H]1CO` | 9.97% | -210% |
| `COc1ccc(C)cc1C(C)NC(=O)CCn1cncn1` (stereo not given) | 10.24% | -4.478% |
| `CC(=O)N[C@@H]1CN(Cc2cccs2)C[C@H]1c1ccc(C)o1` | 7.581% | 0.5589% |
| `CCCS(=O)(=O)N1CCC(NC(=O)c2ccc(C)s2)CC1` | 9.019% | 11.63% |